Earlier results as cited in patent US5753516A, “Screening method for ligands of the EBI-1 receptor” (priority 1995, dated 1998).

System: human peripheral blood T cells
Conditions: read-out: Kd, single type naloxone binding site; Madden et al., 1987; cited from earlier work

For `C=CCN1CC[C@]23c4c5ccc(O)c4O[C@H]2C(=O)CC[C@@]3(O)[C@H]1C5` [Naloxone], the Kd is listed as 56 nM.
